Values quoted from earlier work in US7566550B2, “Screening method for developing drugs against pathogenic microbes having two-component system” (priority 2002, dated 2009).

Tested on: sensor kinase
Details: cited from earlier work

| Structure (SMILES) | effect on sensor kinase molecules in in vitro assay |
| --- | --- |
| Cc1cc(C(C#N)c2ccc(Cl)cc2)c(Cl)cc1NC(=O)c1cc(I)cc(I)c1O (centres unmarked) [Closantel] | non-specific aggregation of sensor kinase molecules |
| NC(N)=NCCc1ccc(OCCC(c2ccccc2)(c2ccccc2)c2ccccc2)cc1 [RWJ-49815] | non-specific aggregation of sensor kinase molecules |
